Among all 6,900 compounds or so, fewer than 10 were called active. The call rests on the fitted dose curve; in most records, active means well fitted curve in the direction sought with a large enough effect; inconclusive means small, poorly fitted or top-dose-only effect, or another doubt; inactive means no such curve, though single readings can be large or run the other way. This is one part of the list.
These compounds were tested against Metallo-beta-lactamase type 2 (Klebsiella pneumoniae) (UniProt C7C422) (assay: qHTS to identify inhibitors of the New Delhi Metallo-beta-lactamase (NDM): primary screen against the NCATS Gemini Collection). Details: NDM-1 enzyme, meropenem hydrolysis, absorbance 300 nm; at 38.4 µM (top of the series) unless noted.
Outline: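 NDM-1 at 2 nM final in 50 mM HEPES pH 7.0, 1 uM ZnSO4, 0.01% Tween20, preincubated >30 min with compound. Meropenem 50 uM final added; absorbance at 300 nm after 30 min.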
Further: % of control where 0% means no effect.

Amino acid sequences for entries named in this document (tags omitted). A change or cut given only in a name is not applied to a line headed by its entry.
UniProt C7C422: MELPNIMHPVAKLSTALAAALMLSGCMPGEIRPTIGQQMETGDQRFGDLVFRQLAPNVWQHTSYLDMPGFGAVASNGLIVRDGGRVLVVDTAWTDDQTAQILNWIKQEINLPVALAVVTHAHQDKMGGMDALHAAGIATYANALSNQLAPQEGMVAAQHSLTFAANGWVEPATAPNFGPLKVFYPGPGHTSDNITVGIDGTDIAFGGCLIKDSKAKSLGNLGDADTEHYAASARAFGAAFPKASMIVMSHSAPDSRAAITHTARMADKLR

Activity % (negative = inhibition), inactive:
CC(C)c1nc2c(c(-c3ccc(O)cc3)n1)CCN(CC1CCCCC1)CC2 3.35%
Cc1ccc(N2CC(c3noc(-c4ccc5ccccc5n4)n3)CC2=O)cc1 (stereo not given) -0.844%
COCCn1ncc(N2CCC(C(=O)N3CCN(C(C)C)CC3)C2)cc1=O (stereo not given) 7.56%
CCOc1ccccc1NC(=O)CN1C(=O)C(c2ccccc2)=NC12CCCCCC2 2.79%
O=C(NCc1ccc(N2CCOCC2)cc1)c1cc[nH]c1C1CCCNC1 (stereo not given) 4.79%
Cn1ccnc1CN1C(=O)CO[C@H]2CN(C(=O)c3cnccn3)C[C@H]21 1.15% [at 57.5 µM]
COc1c(F)cccc1C(=O)N1CCc2onc(-c3ccccc3F)c2C1 14.1%
O=C(C1CCC1)N1CCC2(CC1)CC(N1CCCCC1)CCO2 (stereo not given) 6.15%
Cc1ccc(-c2cn(C3CN(C(=O)C4CCC4)C3)nn2)cc1 7.55%
CC(=O)N1CCC(C(=O)N2CCn3nc(Cc4ccccc4)cc3C2)CC1 -2.11%
CC(c1ccc(-c2cc(N)ncn2)cc1)N1CCCCC1 (stereo not given) -5.09%
O=C(c1cccnc1)N1CCN(c2nnc3ccc(Cl)cn23)CC1 0.878%
NCCc1noc(-c2ccccc2)n1 -0.994%
COCCN1CC(C(=O)N2CCN(c3ncccc3C#N)CC2)CCC1=O (stereo not given) -3.42%
COc1ccc(-c2nc(Cn3c(-c4ccc(Cl)cc4)nc(C)c(CCO)c3=O)c(C)o2)cc1 7.93%
Cc1ccc(CN2C(=O)NC3(CCN(C(=O)Cc4cccc(F)c4)CC3)C2=O)cc1 -5.3%
O=C(NCc1nc(-c2ncccn2)no1)C1CC2(CCNCC2)CN1 (stereo not given) -0.57%
O=C(N[C@@H]1CN(C2CCOCC2)CC[C@@H]1CO)c1ccccc1 -2.7%
Cc1csc(S(=O)(=O)N2CC[C@@H]3[C@@H](CCC(=O)N3CCN)C2)c1 1.68%
C1CCC(COCCc2noc(C3CNC3)n2)C1 11.4%
CCC(CNc1nc(CCN)nc2ccccc12)N1CCN(C)CC1 (stereo not given) 2.06%
O=S(=O)(NCc1cccnc1Oc1ccc(F)cc1F)c1cccnc1 1.43%
Cc1cccc(C(=O)N2CC(Oc3ccc(-c4noc(C5CCOCC5)n4)cc3)C2)c1 3.06%
CCN1c2cc(C(=O)N3CCN(c4cccc(C)c4)CC3)ccc2C(=O)N2CCCCC21 (stereo not given) 1.51%
CC[C@H]1CN(S(C)(=O)=O)CC[C@H]1CC(=O)NCc1ccco1 -1.85% [at 57.5 µM]
Cc1ccc(N2C(=O)N[C@@H]3CCN(S(=O)(=O)c4ccc(Cl)cc4)[C@@H]3C2=O)cc1 11.7% [at 57.5 µM]
O=C(c1ccc(Cl)nc1)N1CCC(C(=O)N2CCC(N3CCCC3=O)CC2)CC1 0.0669%
CN(C)Cc1nnc(C2CCN(C(=O)CCNS(C)(=O)=O)CC2)n1C 3.36%
COCc1cccc(-c2n[nH]c3c2CC(=O)N(c2ccccc2)C3)c1 0.268% [at 57.5 µM]
COCCOc1ccc2c(n1)CCN(C(=O)c1ccc(OC)c(OC)c1)C2 17.7%
CCc1cccc(-n2nnnc2N2CCN(C(=O)NC(C)c3ccccc3)CC2)c1 (stereo not given) -2.03%
Cc1ccccc1N1CCN(C(=O)c2nnn3c2COC(c2ccc(Cl)cc2)C3)CC1 (stereo not given) 12.9%
Cc1nsc(NC(=O)N2CCC(CO)CC2)n1 3.13%
Cn1nccc1CN1CCCC2(COc3ccccc3C(=O)N2)C1 (stereo not given) 15% [at 57.5 µM]
Cn1ccnc1C(=O)C1CCCN(Cc2cc(=O)c3cccc(Cl)c3[nH]2)C1 (stereo not given) 6.2%
O=C([C@@H]1COCC(=O)N1Cc1ccccc1)N1CCN(Cc2ccc3c(c2)OCO3)CC1 9.99%
O=C(COc1ccc(F)cc1)N1CCCCC1c1nc(-c2cnccn2)n[nH]1 (stereo not given) 10.6%
COCC(=O)N[C@@H]1CN(Cc2cccn2C)C[C@H]1CO 31%
O=C([C@@H]1C[C@H](F)CN1C(=O)NC1CCCCC1)N1CCc2ccccc2C1 8.12%
CN1C(=O)C(c2ccccc2)CC12CCN(S(=O)(=O)N(C)C)CC2 (stereo not given) 13%
CCOc1ccccc1N1CCN(Cc2ccc(=O)n(CC)c2)CC1 10.2%
C[C@H]1CCCN1C(=O)c1nnc(COc2ccc(F)c(F)c2)n1-c1cccnc1 -1.14% [at 57.5 µM]
COC[C@H]1C[C@@H](NC(=O)c2cc(C)oc2C(F)(F)F)[C@H](O)[C@@H]1O -1.03% [at 57.5 µM]
O=C(Nc1ccccc1)N[C@H]1[C@H](O)[C@@H](N2CCCCC2)[C@@H]2OC[C@H]1O2 -1.96% [at 57.5 µM]
CN(C)S(=O)(=O)N1[C@@H]2CC[C@H]1CC(NC(=O)c1ccc(F)cc1)C2 (stereo not given in full) -2.71%
O=S(=O)(c1ccccc1)N1CC(c2nc(Cc3cccnc3)no2)C1 2.92%
O=C(CCc1nnn2c1CN(C(=O)COc1ccc(F)cc1)CC2)N1CCCC1 0.261%
CCN(CC)CC[C@H]1CN(C(=O)C2CC2)CC[C@H]1CC(=O)O 41.7% [at 57.5 µM]
CCC(C)NC(=O)N1CCn2nnc(CCC(=O)N3CCOCC3)c2C1 (stereo not given) 8.93%
CNC(=O)N1C[C@@H](CN(C)C)[C@H](NC(=O)c2ccsc2)C1 0.0852%
O=C(Cc1cccc(Cl)c1)NC1CCN(Cc2ccc(-c3ccsc3)cc2)C1 (stereo not given) -4.98%
Cc1cnc(C2CCC2)n1CCNC(=O)c1nccn1C 5.25%
CC(C)(Cc1ccc(F)cc1)NC(=O)CC1C(=O)NCCN1Cc1ccoc1 (stereo not given) 3.32%
CN(C)CC1(O)CCC2(CCN(C(=O)c3cccn3C)CC2)CC1 -1.58%
Cc1cccc(OCC(=O)N2CCC[C@H]2c2nc(-c3ccc(F)cc3)n[nH]2)c1 1.09%

3 structures from above, sorted by count of non-hydrogen atoms, rising.
Activity % (negative = inhibition), inactive:
O=C(N[C@@H]1CN(C2CCOCC2)CC[C@@H]1CO)c1ccccc1 -2.7%
CC(C)(Cc1ccc(F)cc1)NC(=O)CC1C(=O)NCCN1Cc1ccoc1 (stereo not given) 3.32%
C[C@H]1CCCN1C(=O)c1nnc(COc2ccc(F)c(F)c2)n1-c1cccnc1 -1.14% [at 57.5 µM]

From PubChem BioAssay AID1794845 (National Center for Advancing Translational Sciences (NCATS), 2023)
